Results are given in words; binding and its absence hold for the method and conditions named. Binding seen in cells or lysates may run through a third protein. Some binding calls cover weakened binding; strength is not graded here.
Molecular target: Brahma-related gene 1 (Brg1) (mouse (endogenous in neonatal mouse cardiomyocytes)) (UniProt Q3TKT4)
Experiment: co-IP; nucleoprotein extracted from neonatal mouse cardiomyocytes; IP antibody or IgG with lysate at 4°C overnight, Protein A or Protein G magnetic beads, SDS-PAGE detection; which protein was precipitated is not told

Protein sequences, listed by entry. Tags and fused reporters are not part of them.
UniProt Q3TKT4: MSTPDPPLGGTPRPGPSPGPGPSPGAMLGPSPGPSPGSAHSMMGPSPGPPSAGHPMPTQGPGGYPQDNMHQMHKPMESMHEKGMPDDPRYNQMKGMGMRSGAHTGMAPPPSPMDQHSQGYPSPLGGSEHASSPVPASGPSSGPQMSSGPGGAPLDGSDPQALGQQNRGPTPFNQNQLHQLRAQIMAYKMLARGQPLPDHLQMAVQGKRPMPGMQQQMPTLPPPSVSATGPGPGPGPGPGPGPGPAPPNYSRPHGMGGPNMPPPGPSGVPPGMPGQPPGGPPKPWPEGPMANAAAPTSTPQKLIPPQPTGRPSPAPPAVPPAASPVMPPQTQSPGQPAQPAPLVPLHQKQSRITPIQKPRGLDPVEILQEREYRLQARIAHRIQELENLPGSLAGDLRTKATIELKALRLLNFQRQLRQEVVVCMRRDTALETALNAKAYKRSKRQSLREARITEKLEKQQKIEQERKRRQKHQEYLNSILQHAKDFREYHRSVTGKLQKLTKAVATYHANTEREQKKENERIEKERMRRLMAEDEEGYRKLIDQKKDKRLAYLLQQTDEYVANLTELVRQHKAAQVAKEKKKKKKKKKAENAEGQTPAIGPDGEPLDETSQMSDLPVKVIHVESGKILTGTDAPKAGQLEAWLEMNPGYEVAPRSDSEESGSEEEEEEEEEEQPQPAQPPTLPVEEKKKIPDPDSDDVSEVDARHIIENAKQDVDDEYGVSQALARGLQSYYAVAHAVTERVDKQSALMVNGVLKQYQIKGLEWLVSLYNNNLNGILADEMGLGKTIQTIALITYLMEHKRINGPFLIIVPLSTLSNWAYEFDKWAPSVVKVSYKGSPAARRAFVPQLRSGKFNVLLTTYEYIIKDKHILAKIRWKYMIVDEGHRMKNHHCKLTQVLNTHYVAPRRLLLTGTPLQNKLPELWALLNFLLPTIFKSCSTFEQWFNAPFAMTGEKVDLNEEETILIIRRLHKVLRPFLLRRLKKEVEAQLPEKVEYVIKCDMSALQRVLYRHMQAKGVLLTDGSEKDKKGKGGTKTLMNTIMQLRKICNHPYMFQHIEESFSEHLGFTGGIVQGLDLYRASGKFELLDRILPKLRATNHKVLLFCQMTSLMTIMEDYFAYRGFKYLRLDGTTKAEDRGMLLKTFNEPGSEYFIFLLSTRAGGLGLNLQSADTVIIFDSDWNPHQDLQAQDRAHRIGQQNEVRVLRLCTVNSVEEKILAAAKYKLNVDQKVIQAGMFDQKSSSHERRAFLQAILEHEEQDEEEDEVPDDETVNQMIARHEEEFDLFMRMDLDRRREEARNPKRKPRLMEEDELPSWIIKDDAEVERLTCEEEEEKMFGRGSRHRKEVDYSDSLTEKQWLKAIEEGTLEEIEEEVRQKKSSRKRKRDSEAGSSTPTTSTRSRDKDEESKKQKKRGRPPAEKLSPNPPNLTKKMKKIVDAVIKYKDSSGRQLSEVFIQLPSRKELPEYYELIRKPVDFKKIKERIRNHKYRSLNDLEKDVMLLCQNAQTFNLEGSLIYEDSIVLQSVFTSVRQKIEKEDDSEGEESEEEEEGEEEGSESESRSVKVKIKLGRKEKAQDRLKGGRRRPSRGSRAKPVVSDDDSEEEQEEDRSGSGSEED
UniProt Q03347: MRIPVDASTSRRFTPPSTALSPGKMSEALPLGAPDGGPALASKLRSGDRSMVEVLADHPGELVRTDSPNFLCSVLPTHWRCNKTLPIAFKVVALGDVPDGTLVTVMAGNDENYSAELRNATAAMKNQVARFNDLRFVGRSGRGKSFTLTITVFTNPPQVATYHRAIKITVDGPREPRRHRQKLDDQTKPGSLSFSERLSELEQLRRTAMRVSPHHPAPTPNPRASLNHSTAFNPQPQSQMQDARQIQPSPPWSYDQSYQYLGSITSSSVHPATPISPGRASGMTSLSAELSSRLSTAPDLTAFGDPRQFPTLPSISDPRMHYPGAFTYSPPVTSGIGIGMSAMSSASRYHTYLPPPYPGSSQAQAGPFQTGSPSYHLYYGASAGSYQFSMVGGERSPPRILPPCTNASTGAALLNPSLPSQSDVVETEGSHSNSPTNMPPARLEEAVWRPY

binding: binds
Substance: RUNX1 (from UniProt Q03347 1-451)

Reference: paper PMC11669506
